This assay deals with Bcl11b-streptag (mouse) (UniProt Q99PV8). Put plainly: affinity purification with mass spectrometry.

Chains of the proteins cited; added tags and fusions are not shown.
UniProt Q99PV8: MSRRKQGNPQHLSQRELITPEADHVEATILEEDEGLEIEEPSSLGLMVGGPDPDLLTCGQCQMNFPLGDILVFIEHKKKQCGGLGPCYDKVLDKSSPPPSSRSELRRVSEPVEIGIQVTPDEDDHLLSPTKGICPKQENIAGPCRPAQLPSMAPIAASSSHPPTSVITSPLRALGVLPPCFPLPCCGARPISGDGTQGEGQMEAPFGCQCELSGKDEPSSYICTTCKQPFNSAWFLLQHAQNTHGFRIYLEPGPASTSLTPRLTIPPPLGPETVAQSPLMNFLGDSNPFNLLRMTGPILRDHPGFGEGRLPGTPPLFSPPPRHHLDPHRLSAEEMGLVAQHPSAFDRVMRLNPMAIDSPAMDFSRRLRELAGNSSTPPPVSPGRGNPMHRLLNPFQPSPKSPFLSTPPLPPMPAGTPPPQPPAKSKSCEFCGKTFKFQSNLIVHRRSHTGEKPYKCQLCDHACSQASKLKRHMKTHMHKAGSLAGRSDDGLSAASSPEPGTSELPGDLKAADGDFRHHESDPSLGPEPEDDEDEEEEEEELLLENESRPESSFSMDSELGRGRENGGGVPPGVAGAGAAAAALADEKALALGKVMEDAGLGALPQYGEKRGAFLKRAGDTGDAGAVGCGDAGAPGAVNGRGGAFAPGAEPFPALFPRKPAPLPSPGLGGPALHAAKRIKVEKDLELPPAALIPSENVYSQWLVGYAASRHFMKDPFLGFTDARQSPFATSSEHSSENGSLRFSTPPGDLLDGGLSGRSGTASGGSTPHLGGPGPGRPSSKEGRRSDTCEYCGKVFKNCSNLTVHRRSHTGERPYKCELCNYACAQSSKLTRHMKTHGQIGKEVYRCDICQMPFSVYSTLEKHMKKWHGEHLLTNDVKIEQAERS

Results are given in words; binding and its absence hold for the method and conditions named. Binding seen in cells or lysates may run through a third protein. Here binding means that the protein was enriched with, or labelled near, the bait; the list need not be complete.

B1: Pura (protein, UniProt P42669 1-321)
chain: MADRDSGSEQGGAALGSGGSLGHPGSGSGSGGGGGGGGGGGGSGGGGGAPGGLQHETQELASKRVDIQNKRFYLDVKQNAKGRFLKIAEVGAGGNKSRLTLSMSVAVEFRDYLGDFIEHYAQLGPSQPPDLAQAQDEPRRALKSEFLVRENRKYYMDLKENQRGRFLRIRQTVNRGPGLGSTQGQTIALPAQGLIEFRDALAKLIDDYGVEEEPAELPEGTSLTVDNKRFFFDVGSNKYGVFMRVSEVKPTYRNSITVPYKVWAKFGHTFCKYSEEMKKIQEKQREKRAACEQLHQQQQQQQEETTAATLLLQGEEEGEED
With B1, the binding entry is given as “binds”.

B2: Nap1l1 (protein, UniProt P28656 1-391)
chain: MADIDNKEQSELDQDLEDVEEVEEEETGEETKIKARQLTVQMMQNPQILAALQERLDGLVDTPTGYIESLPKVVKRRVNALKNLQVKCAQIEAKFYEEVHDLERKYAVLYQPLFDKRFEIINAIYEPTEEECEWKPDEEDEVSEELKEKAKIEDEKKDEEKEDPKGIPEFWLTVFKNVDLLSDMVQEHDEPILKHLKDIKVKFSDAGQPMSFVLEFHFEPNDYFTNEVLTKTYRMRSEPDDSDPFSFDGPEIMGCTGCQIDWKKGKNVTLKTIKKKQKHKGRGTVRTVTKTVSNDSFFNFFAPPEVPENGDLDDDAEAILAADFEIGHFLRERIIPRSVLYFTGEAIEDDDDDYDEEGEEADEEGEEEGDEENDPDYDPKKDQNPAECKQQ
For B2, the binding result is “binds”.

These data come from paper doi:10.64898/2025.12.19.694617.
